Data reported in PMC7326017.
These are yes or no findings as the source states them, for the method shown. In cells and extracts the contact can be indirect. Binding calls can cover weak binding; strength is not graded here. Tags and fused reporters may be left off the sequences shown.

Key:
[1] = biological target: T1, Flag-tagged scaffold dimerization domain (SDD) of IKKε (pCAGGS-Flag-SDD) (UniProt Q14164); experiment: co-IP; reverse co-IP: HEK-293T co-transfected with pCAGGS-HA-NS7a and Flag-tagged IKKε, SDD or KD for 24 h; IP with anti-Flag, blot with anti-HA (Figures 4B, 6C, 6D)
T1 sequence: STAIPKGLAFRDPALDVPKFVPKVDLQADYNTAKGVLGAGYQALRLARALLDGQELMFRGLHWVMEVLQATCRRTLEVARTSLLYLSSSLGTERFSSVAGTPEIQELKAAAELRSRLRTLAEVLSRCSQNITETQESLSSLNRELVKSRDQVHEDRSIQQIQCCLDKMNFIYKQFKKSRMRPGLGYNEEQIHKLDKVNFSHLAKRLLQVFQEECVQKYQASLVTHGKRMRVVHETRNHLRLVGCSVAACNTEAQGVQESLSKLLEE

[2] = biological target: T2, Flag-tagged kinase domain (KD) of IKKε (pCAGGS-Flag-KD) (UniProt Q14164); experiment: as above
T2 sequence: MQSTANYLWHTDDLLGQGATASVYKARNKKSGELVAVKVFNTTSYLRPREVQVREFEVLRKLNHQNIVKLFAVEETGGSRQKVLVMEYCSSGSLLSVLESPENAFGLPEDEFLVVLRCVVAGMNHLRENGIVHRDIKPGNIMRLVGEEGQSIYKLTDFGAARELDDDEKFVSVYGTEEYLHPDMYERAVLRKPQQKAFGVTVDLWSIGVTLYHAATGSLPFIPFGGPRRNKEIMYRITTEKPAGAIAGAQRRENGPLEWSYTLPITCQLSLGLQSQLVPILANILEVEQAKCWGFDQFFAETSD

[3] = biological target: T3, Flag-tagged full-length IKKε (UniProt Q14164); experiment: as above
T3 sequence: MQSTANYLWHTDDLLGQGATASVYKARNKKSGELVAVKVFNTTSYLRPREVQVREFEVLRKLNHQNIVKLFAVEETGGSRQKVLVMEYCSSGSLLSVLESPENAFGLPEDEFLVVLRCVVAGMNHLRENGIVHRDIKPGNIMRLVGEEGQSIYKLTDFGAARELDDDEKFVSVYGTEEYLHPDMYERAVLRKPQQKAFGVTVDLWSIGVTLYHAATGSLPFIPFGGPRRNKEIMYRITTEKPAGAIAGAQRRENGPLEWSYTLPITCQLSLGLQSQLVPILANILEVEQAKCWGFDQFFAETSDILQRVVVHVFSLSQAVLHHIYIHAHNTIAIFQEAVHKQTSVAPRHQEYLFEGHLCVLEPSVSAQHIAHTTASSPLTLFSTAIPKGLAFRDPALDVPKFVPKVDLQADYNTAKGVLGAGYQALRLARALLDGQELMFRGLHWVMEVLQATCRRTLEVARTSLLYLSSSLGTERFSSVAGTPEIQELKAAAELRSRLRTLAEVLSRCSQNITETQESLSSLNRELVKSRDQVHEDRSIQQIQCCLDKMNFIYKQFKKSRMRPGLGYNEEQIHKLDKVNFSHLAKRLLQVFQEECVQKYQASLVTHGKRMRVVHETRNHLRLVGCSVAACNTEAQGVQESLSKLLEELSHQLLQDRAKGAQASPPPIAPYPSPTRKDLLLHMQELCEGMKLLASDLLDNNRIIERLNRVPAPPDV

[4] = biological target: T4, HA-tagged kinase domain (KD) of IKKε (pCAGGS-HA-KD) (UniProt Q14164); experiment: co-IP; competitive co-IP: HEK-293T co-transfected with HA-tagged IKKε, SDD or KD and Flag-tagged TRAF3 or IRF3, with pCAGGS-Myc-NS7a or empty vector, 24 h; IP with anti-HA, blot with anti-HA, anti-Flag, anti-Myc (Figures 5A, 5B, 6E, 6F)
T4 sequence: T2 sequence

[5] = biological target: T5, HA-tagged full-length IKKε (pCAGGS-HA-IKKε) (UniProt Q14164); experiment: as above
T5 sequence: T3 sequence

[6] = biological target: T6, HA-tagged scaffold dimerization domain (SDD) of IKKε (pCAGGS-HA-SDD) (UniProt Q14164); experiment: as above
T6 sequence: T1 sequence

[7] = biological target: PDCoV NS7a, HA-tagged (pCAGGS-HA-NS7a) (porcine deltacoronavirus (PDCoV) strain CHN-HN-2014); experiment: co-IP; HEK-293T co-transfected with pCAGGS-HA-NS7a and Flag-tagged constructs for 24 h; lysis buffer 50 mM Tris-HCl, 150 mM NaCl, 1% NP-40, 10% glycerin, 0.1% SDS, 2 mM Na2EDTA, pH 7.4; IP with anti-HA, blot with anti-Flag (Figures 4A, 6B)

PDCoV NS7a, HA-tagged (pCAGGS-HA-NS7a)
binding [1]: binds
binding [2]: binds
binding [3]: binds

PDCoV NS7a, Myc-tagged (pCAGGS-Myc-NS7a)
binding [4]: binds
binding [5]: binds
binding [6]: binds

B1: Flag-tagged full-length IKKε (protein, UniProt Q14164 1-716)
chain: T3 sequence
binding [7]: binds

B2: Flag-tagged kinase domain (KD) of IKKε (pCAGGS-Flag-KD) (domain or fragment, UniProt Q14164 1-304)
chain: T2 sequence
binding [7]: binds

B3: Flag-tagged scaffold dimerization domain (SDD) of IKKε (pCAGGS-Flag-SDD) (domain or fragment, UniProt Q14164 383-648)
chain: T1 sequence
binding [7]: binds
